Test results: publication PMC2773007
These are yes or no findings as the source states them, for the method shown. Binding seen in cells or lysates may run through a third protein. Some entries that bind do so weakly or less than the wild type. Tags and fused reporters may be left off the sequences shown.

Amino acid sequences for entries named in this document (tags omitted).
UniProt P62993: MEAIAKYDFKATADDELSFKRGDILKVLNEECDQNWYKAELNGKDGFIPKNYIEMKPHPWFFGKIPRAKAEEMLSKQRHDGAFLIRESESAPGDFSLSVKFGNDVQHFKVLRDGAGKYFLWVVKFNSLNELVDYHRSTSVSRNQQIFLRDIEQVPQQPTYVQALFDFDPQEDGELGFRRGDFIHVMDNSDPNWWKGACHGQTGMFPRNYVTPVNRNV

Molecular target: T1, Dvl2 PRR1 mutant (Δ111–122), FLAG-tagged (human) (UniProt O14641)
T1 sequence: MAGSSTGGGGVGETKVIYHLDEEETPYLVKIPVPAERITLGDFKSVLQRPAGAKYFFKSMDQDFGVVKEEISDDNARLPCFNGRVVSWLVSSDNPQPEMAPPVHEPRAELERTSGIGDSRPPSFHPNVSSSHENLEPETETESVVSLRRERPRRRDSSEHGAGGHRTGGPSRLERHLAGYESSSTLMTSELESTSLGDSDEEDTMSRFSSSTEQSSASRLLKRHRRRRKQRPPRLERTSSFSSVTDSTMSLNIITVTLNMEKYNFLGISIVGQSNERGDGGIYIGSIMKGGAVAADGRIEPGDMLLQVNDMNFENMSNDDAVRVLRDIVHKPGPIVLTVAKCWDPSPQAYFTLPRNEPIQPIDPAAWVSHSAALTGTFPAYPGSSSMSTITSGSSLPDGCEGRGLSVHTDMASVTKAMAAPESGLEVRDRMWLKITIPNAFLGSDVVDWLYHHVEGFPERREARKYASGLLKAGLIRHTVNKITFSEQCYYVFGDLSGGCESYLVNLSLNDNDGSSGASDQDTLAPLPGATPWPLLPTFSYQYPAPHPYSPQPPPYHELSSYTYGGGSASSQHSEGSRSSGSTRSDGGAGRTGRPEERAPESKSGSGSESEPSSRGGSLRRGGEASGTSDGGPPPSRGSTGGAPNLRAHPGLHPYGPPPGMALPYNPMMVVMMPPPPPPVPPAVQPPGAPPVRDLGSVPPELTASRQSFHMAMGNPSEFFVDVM
Assay: co-IP; FLAG-Dvl2 (WT or PRR mutant) and HA-Grb2 co-expressed in HEK293; RIPA lysate; anti-FLAG immunoprecipitation overnight at 4°C, protein-G sepharose 2 hrs at RT; blot with anti-HA

binding: binds
Substance: HA-tagged Grb2 (human growth factor receptor-bound-2) (from UniProt P62993 1-217)
